# Data as given in PubChem BioAssay AID1224830 (NIAID, 2016).
# Test: 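Genes whose knock-down alters the TNF-alpha reporter response to LPS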 (primary screen)
# System: human THP-1 monocytic leukaemia cells, TNF dual-luciferase reporter clone, PMA-differentiated to macrophage-like cells
# Knock-down reagent: siRNA pool against human genes, 50 nM
# Time to read-out: LPS for 4 h, given about 3 days after siRNA transfection
# Challenge: bacterial LPS (TLR4 ligand), 10 ng/ml
# Detection: 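Ratio of firefly to renilla light, scaled to the plate median and expressed as a robust z-score per replicate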
# Direction: TNF reporter robust z-score: higher = stronger TNF reporter response to LPS
# Rule for the call: 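Each well counts as active if its z-score is over 2.8 or under -1.5; controls are left without a call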
# In all, the deposit lists about 18,000 reagents; this is a part drawn at random. Of all reagents, about 2,900 (16%) got an active call. 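Calls are made per well; low scores hint the gene aids the LPS response, high scores that it dampens it.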 Repeated entries: four replicate wells of each siRNA pool.
The first 12 entries, to show the layout:
Target gene,TNF reporter robust z-score,Call
GSTM3 (glutathione S-transferase mu 3),-0.28,inactive
GSTM3 (glutathione S-transferase mu 3),0.47,inactive
GSTM3 (glutathione S-transferase mu 3),0.93,inactive
GSTM3 (glutathione S-transferase mu 3),-0.17,inactive
SPARCL1 (SPARC like 1),-1.42,inactive
SPARCL1 (SPARC like 1),-0.31,inactive
SPARCL1 (SPARC like 1),-0.71,inactive
SPARCL1 (SPARC like 1),-0.51,inactive
STARD13 (StAR related lipid transfer domain containing 13),-0.28,inactive
STARD13 (StAR related lipid transfer domain containing 13),1.73,inactive
STARD13 (StAR related lipid transfer domain containing 13),1.8,inactive
STARD13 (StAR related lipid transfer domain containing 13),2.22,inactive

The list itself, from the start:
Target gene,TNF reporter robust z-score,Call
GSTM3 (glutathione S-transferase mu 3),-0.28,inactive
GSTM3 (glutathione S-transferase mu 3),0.47,inactive
GSTM3 (glutathione S-transferase mu 3),0.93,inactive
GSTM3 (glutathione S-transferase mu 3),-0.17,inactive
SPARCL1 (SPARC like 1),-1.42,inactive
SPARCL1 (SPARC like 1),-0.31,inactive
SPARCL1 (SPARC like 1),-0.71,inactive
SPARCL1 (SPARC like 1),-0.51,inactive
STARD13 (StAR related lipid transfer domain containing 13),-0.28,inactive
STARD13 (StAR related lipid transfer domain containing 13),1.73,inactive
STARD13 (StAR related lipid transfer domain containing 13),1.8,inactive
STARD13 (StAR related lipid transfer domain containing 13),2.22,inactive
SLC23A1,1.28,inactive
SLC23A1,1.57,inactive
SLC23A1,1.33,inactive
SKA3 (spindle and kinetochore associated complex subunit 3),-0.75,inactive
SKA3 (spindle and kinetochore associated complex subunit 3),-0.4,inactive
SKA3 (spindle and kinetochore associated complex subunit 3),-1.5,inactive
SKA3 (spindle and kinetochore associated complex subunit 3),-0.72,inactive
SELENOV (selenoprotein V),-0.1,inactive
SELENOV (selenoprotein V),-0.45,inactive
SELENOV (selenoprotein V),-0.81,inactive
SELENOV (selenoprotein V),-0.25,inactive
DDX56 (DEAD-box helicase 56),0.22,inactive
DDX56 (DEAD-box helicase 56),1.17,inactive
DDX56 (DEAD-box helicase 56),0.09,inactive
DDX56 (DEAD-box helicase 56),1.35,inactive
QSOX2 (quiescin sulfhydryl oxidase 2),1.45,inactive
QSOX2 (quiescin sulfhydryl oxidase 2),1.79,inactive
QSOX2 (quiescin sulfhydryl oxidase 2),1.92,inactive
QSOX2 (quiescin sulfhydryl oxidase 2),2.88,active
ZBTB43 (zinc finger and BTB domain containing 43),0.27,inactive
ZBTB43 (zinc finger and BTB domain containing 43),2.04,inactive
ZBTB43 (zinc finger and BTB domain containing 43),1.08,inactive
ZBTB43 (zinc finger and BTB domain containing 43),1.14,inactive
GAPDH (glyceraldehyde-3-phosphate dehydrogenase),-0.61,inactive
GAPDH (glyceraldehyde-3-phosphate dehydrogenase),-0.92,inactive
GAPDH (glyceraldehyde-3-phosphate dehydrogenase),-0.62,inactive
GAPDH (glyceraldehyde-3-phosphate dehydrogenase),0.22,inactive
"PIM2 (Pim-2 proto-oncogene, serine/threonine kinase)",0,inactive
"PIM2 (Pim-2 proto-oncogene, serine/threonine kinase)",-0.06,inactive
"PIM2 (Pim-2 proto-oncogene, serine/threonine kinase)",0.32,inactive
"PIM2 (Pim-2 proto-oncogene, serine/threonine kinase)",0.78,inactive
TMEM268 (transmembrane protein 268),0.64,inactive
TMEM268 (transmembrane protein 268),0.61,inactive
TMEM268 (transmembrane protein 268),-0.48,inactive
TMEM268 (transmembrane protein 268),0.39,inactive
ZNF746 (zinc finger protein 746),0.76,inactive
ZNF746 (zinc finger protein 746),-0.85,inactive
ZNF746 (zinc finger protein 746),-0.83,inactive
ZNF746 (zinc finger protein 746),1.21,inactive
MAP2K2 (mitogen-activated protein kinase kinase 2),2.66,inactive
MAP2K2 (mitogen-activated protein kinase kinase 2),2.68,inactive
MAP2K2 (mitogen-activated protein kinase kinase 2),2.58,inactive
MAP2K2 (mitogen-activated protein kinase kinase 2),5,active
PRDX1 (peroxiredoxin 1),0.96,inactive
PRDX1 (peroxiredoxin 1),0.29,inactive
PRDX1 (peroxiredoxin 1),1.03,inactive
PRDX1 (peroxiredoxin 1),1.89,inactive
ERP29 (endoplasmic reticulum protein 29),1.57,inactive
ERP29 (endoplasmic reticulum protein 29),3.36,active
ERP29 (endoplasmic reticulum protein 29),1.5,inactive
ERP29 (endoplasmic reticulum protein 29),4.17,active
C1QA (complement C1q A chain),0.5,inactive
C1QA (complement C1q A chain),-0.25,inactive
C1QA (complement C1q A chain),0.28,inactive
C1QA (complement C1q A chain),-0.14,inactive
GDE1 (glycerophosphodiester phosphodiesterase 1),0.8,inactive
GDE1 (glycerophosphodiester phosphodiesterase 1),1.07,inactive
GDE1 (glycerophosphodiester phosphodiesterase 1),0.87,inactive
GDE1 (glycerophosphodiester phosphodiesterase 1),0.76,inactive
GAGE12I (G antigen 12I),0.73,inactive
GAGE12I (G antigen 12I),2.09,inactive
GAGE12I (G antigen 12I),2,inactive
GAGE12I (G antigen 12I),1.06,inactive
SNRNP25 (small nuclear ribonucleoprotein U11/U12 subunit 25),-1.18,inactive
SNRNP25 (small nuclear ribonucleoprotein U11/U12 subunit 25),0.05,inactive
SNRNP25 (small nuclear ribonucleoprotein U11/U12 subunit 25),-0.78,inactive
SNRNP25 (small nuclear ribonucleoprotein U11/U12 subunit 25),0.26,inactive
SYTL3 (synaptotagmin like 3),0.7,inactive
SYTL3 (synaptotagmin like 3),-0.18,inactive
SYTL3 (synaptotagmin like 3),-0.83,inactive
SYTL3 (synaptotagmin like 3),1.03,inactive
CDRT15 (CMT1A duplicated region transcript 15),-0.82,inactive
CDRT15 (CMT1A duplicated region transcript 15),-1.04,inactive
CDRT15 (CMT1A duplicated region transcript 15),-0.64,inactive
"MYC (MYC proto-oncogene, bHLH transcription factor)",1.39,inactive
"MYC (MYC proto-oncogene, bHLH transcription factor)",1.58,inactive
"MYC (MYC proto-oncogene, bHLH transcription factor)",0.96,inactive
"MYC (MYC proto-oncogene, bHLH transcription factor)",1.16,inactive
ATP6V1E1 (ATPase H+ transporting V1 subunit E1),0.68,inactive
ATP6V1E1 (ATPase H+ transporting V1 subunit E1),1.6,inactive
ATP6V1E1 (ATPase H+ transporting V1 subunit E1),1.64,inactive
ATP6V1E1 (ATPase H+ transporting V1 subunit E1),0.39,inactive
ZNF34 (zinc finger protein 34),0.05,inactive
ZNF34 (zinc finger protein 34),0.6,inactive
ZNF34 (zinc finger protein 34),-1.03,inactive
ZNF34 (zinc finger protein 34),-0.11,inactive
MCRIP1 (MAPK regulated corepressor interacting protein 1),0.86,inactive
MCRIP1 (MAPK regulated corepressor interacting protein 1),0.52,inactive
MCRIP1 (MAPK regulated corepressor interacting protein 1),-1.76,active
MCRIP1 (MAPK regulated corepressor interacting protein 1),0.16,inactive
AIRE (autoimmune regulator),-0.18,inactive
AIRE (autoimmune regulator),-1.22,inactive
AIRE (autoimmune regulator),-1.19,inactive
AIRE (autoimmune regulator),-1.89,active
KCNH7 (potassium voltage-gated channel subfamily H member 7),-0.31,inactive
KCNH7 (potassium voltage-gated channel subfamily H member 7),-0.62,inactive
KCNH7 (potassium voltage-gated channel subfamily H member 7),-1.29,inactive
KCNH7 (potassium voltage-gated channel subfamily H member 7),-1.3,inactive
